# Experimental data as given in PubChem BioAssay AID1471 (National Center for Advancing Translational Sciences (NCATS), 2008).
# Values joined by “and” are separate entries in the source; they are usually repeats but may differ in a detail not shown here. Equal values may be shown once. The whole screen tested about 230,000 compounds, of which about 310 (0.13%) were called active. Inconclusive results, whose numbers are uncertain, are shown with a selection of clear calls. Calls follow the shape of the dose curve; as a rule, active = well fitted activation curve with a large enough effect; inconclusive = small, poorly fitted or top-dose-only effect; inactive = no such curve, though single readings can be large or run the other way. Where the call is inconclusive, the potency comes from a doubtful curve fit. Non-standard residues stand in square brackets, D forms with d. Residues, ends and D or L forms follow the SMILES beside them. *: point of attachment. Sta = CC(C)C[C@H](N)[C@@H](O)CC(=O)O; Isovaleryl = CC(C)CC(=O)*
# Experiment: qHTS Multiplex Assay to Identify Dual Action Probes in a Cell Model of Huntington: Cytoprotection (ATP); also: nearly all actives have a fitted effect of over 45% in size;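 as to cytoprotection (ATP increase): toxic huntingtin expression switched on by the ecdysone agonist tebufenozide; % of control where 0% means no effect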
# Details: PC12 HTT-Q103 induced, ATP luminescence, 40 h; cytoprotection (ATP increase): at 56.4 µM (top of the series) unless noted
# How it was run: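 Huntington model: PC12 line, ecdysone-inducible HTTQ103 exon1–GFP, tebufenozide 100 nM. Test articles in a dose series. Endpoint luminescence from cellular ATP.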
# Potency is read from the fitted curve at half-maximal effect.
SMILES,cytoprotection (ATP increase),Potency
CC(C)N(CC#CCC(O)(c1ccccc1)C1CCCC1)CCO (stereo not given),inactive: -0.968% [at 10 µM],
Cc1cc(C)cc(-c2cc3c(c(-c4c(O)c(-c5cc(C)cc(C)c5)cc5c4CCCC5)c2O)CCCC3)c1,,"inconclusive: 2.51 µM [activator, single point]"
O=C(NS(=O)(=O)c1ccc(F)cc1)O[C@@H]1C(=O)c2cc(Br)ccc2O[C@H]1c1ccc2c(c1)OCO2,,"inconclusive: 0.631 µM [activator, partial curve]"
CC(=O)NCCNc1ncncc1-c1ccc(N(C)C)cc1,,"inconclusive: 31.6 µM [activator, single point]"
COC(=O)c1sc(NC(=O)/C=C/c2ccc(C)o2)nc1C,,"inconclusive: 0.891 µM [activator, single point]"
O=C(c1ccc(Cl)cc1)c1ccc(OCC(O)CN2CCCCC2)cc1 (stereo not given),,"inconclusive: 3.16 µM [activator, single point]"
CC(=O)N/N=C/c1cc2c(cc1[N+](=O)[O-])OCO2,,"inconclusive: 1.26 µM [activator, single point]"
O=C(NC(CO)C(O)c1ccc([N+](=O)[O-])cc1)C(Cl)Cl (stereo not given),,"inconclusive: 5.6 nM [activator, full curve, poor fit] and inconclusive: 35.5 µM [activator, single point]"
CCn1nnnc1SCC(=O)Nc1nnc(C(C)C)s1,inactive: 1.18%,
COC(=O)NC(c1ccc(Cl)cc1)C(C(C)=O)C(=O)OC (stereo not given),inactive: 10.9% [at 10 µM],
CC(=O)Nc1nonc1-c1nc2ccccc2n1Cc1ccccn1,,"inconclusive: 2.24 µM [activator, partial curve, poor fit]"
O=C1c2cccnc2C(O)N1Cc1ccco1 (stereo not given),inactive: -16.6% [at 10 µM],
CCn1cc(C(=O)O)c(=O)c2cc3c(cc21)OCO3,,"inconclusive: 0.562 µM [activator, single point]"
O=C(NNc1ccccn1)C(=O)NNS(=O)(=O)c1ccc(F)cc1,,"inconclusive: 0.794 µM [activator, single point]"
COc1cc2c(Cc3c4c5c(cc(OC)c(OC)c5c5c(OC)c(OC)ccc35)CCN4C)c3c4c(cc(OC)c(OC)c4c2cc1OC)CCN3C,inactive: 6.86% [at 1.9 µM],
COc1ccc(-n2nc(C(=O)Nc3ccc4c(c3)OCO4)c3c4ccccc4n(C)c3c2=O)cc1,,"inconclusive: 0.501 µM [activator, single point]"
CC(=O)Nc1ccc(S(C)(=O)=O)c(C)c1,,"inconclusive: 0.794 µM [activator, single point]"
Cc1cc(C)nc(SCC(=O)NNC(=O)c2ccccc2C)n1,,"inconclusive: 0.562 µM [activator, full curve, poor fit]"
CO[C@@H]1/C=C\CC(=O)N2CCC[C@@H]2C(=O)OC[C@@H](C)C(=O)OC[C@H]1C,,"inconclusive: 0.355 µM [activator, partial curve]"
Cc1nnc(Nc2ccc(Cl)c(C(F)(F)F)c2)[nH]c1=O,inactive: -29.2%,

SMILES,cytoprotection (ATP increase),Potency
O=C(Nc1ccc(Cl)cc1)Nc1ccc(N2CCCC2)c(S(=O)(=O)Nc2ccccc2Cl)c1,inactive: 1% [at 10 µM],
COc1cccc(Nc2ncc3nc(-c4cc(F)cc(F)c4)c(=O)n(CCC#N)c3n2)c1,inactive: -8.23%,
O=C(NCc1ccco1)C1CCN(c2nc3ccccc3n2Cc2ccccc2F)CC1,,"inconclusive: 0.224 µM [activator, full curve]"
CN(C)c1nc(/C=C(\C#N)C(N)=O)c(Cl)n1-c1ccc(F)cc1,,"inconclusive: 31.6 µM [activator, single point]"
Cc1csc(NC(=O)C2=NN(c3ccccc3)C(=O)CC2)n1,,"inconclusive: 6.31 µM [activator, partial curve, poor fit]"
O=C(Nc1ccccc1[N+](=O)[O-])c1cncc(Br)c1,,"inconclusive: 0.794 µM [activator, single point]"
N/C(CN1CCSCC1)=N\OCc1c(F)cccc1Cl,,"inconclusive: 1.78 µM [activator, partial curve]"
CC(=O)Nc1cccc(-c2csc(N)n2)c1,,"inconclusive: 6.31 µM [activator, partial curve]"
CC(C)CC(=O)N[C@H](C(=O)N[C@H](C(=O)N[C@@H](CC(C)C)[C@@H](O)CC(=O)N[C@@H](C)C(=O)N[C@@H](CC(C)C)[C@@H](O)CC(=O)O)C(C)C)C(C)C (Isovaleryl-VV[Sta]A[Sta]-OH),,"inconclusive: 31.6 µM [activator, single point]"
CC(=O)NC(Cc1cccc(F)c1)C(=O)NC1CCN(C(=O)c2cccc(C)c2)CC1 (stereo not given),inactive: 0.519% [at 10 µM],
CC1CN(C(=O)c2ccc(Oc3ccccc3)cc2)CC(C)O1 (stereo not given),,"inconclusive: 2 µM [activator, partial curve]"
CCCCC/C=C\C\C=C/C=C/C=C/[C@@H](SC[C@H](N)C(=O)O)[C@@H](O)CCCC(=O)O,inactive: -0.319%,
COc1ccccc1C1CCN(c2ccc([N+](=O)[O-])c(OC)c2)CC1,,"inconclusive: 1.12 µM [activator, single point]"
C[C@H](O)C(=O)Nc1c(I)c(C(=O)NC(CO)CO)c(I)c(C(=O)NC(CO)CO)c1I,,"inconclusive: 12.6 µM [activator, single point]"
S=C(NCc1cccnc1)Nc1ccc(Oc2ccccc2)cc1,inactive: -205%,
CC12CC3CC(C)(C1)CC(NCc1ccncc1)(C3)C2,,"inconclusive: 0.112 µM [activator, partial curve, poor fit]"
O=C(COc1ccc(C(=S)N2CCOCC2)cc1)N1CCCC1,,"inconclusive: 28.2 µM [activator, single point]"
CC(=O)OC1CC2CCC1(C)C2(C)C (stereo not given),,"inconclusive: 0.501 µM [activator, single point]"
O=C(CN1C(=O)CCS(=O)(=O)c2ccccc21)Nc1ccc2c(c1)OCCO2,inactive: 1.45% [at 10 µM],
S=C1NC2=C(CCCC2)C2(CCCCC2)N1,,"inconclusive: 1.26 µM [activator, single point]"

# Reprinted at random: two compounds from above.
SMILES,cytoprotection (ATP increase),Potency
CC12CC3CC(C)(C1)CC(NCc1ccncc1)(C3)C2,,"inconclusive: 0.112 µM [activator, partial curve, poor fit]"
Cc1cc(C)cc(-c2cc3c(c(-c4c(O)c(-c5cc(C)cc(C)c5)cc5c4CCCC5)c2O)CCCC3)c1,,"inconclusive: 2.51 µM [activator, single point]"
